The source of these data is publication PMC11607471, “E3 Ubiquitin Ligase Ring Finger Protein 2 Alleviates Cerebral Ischemia–Reperfusion Injury by Stabilizing Mesencephalic Astrocyte‐Derived Neurotrophic Factor Through Monoubiquitination” (CNS Neuroscience & Therapeutics, 2024).

Protein sequences, listed by entry. Tags and fused reporters are not part of them.
UniProt Q9CQJ4: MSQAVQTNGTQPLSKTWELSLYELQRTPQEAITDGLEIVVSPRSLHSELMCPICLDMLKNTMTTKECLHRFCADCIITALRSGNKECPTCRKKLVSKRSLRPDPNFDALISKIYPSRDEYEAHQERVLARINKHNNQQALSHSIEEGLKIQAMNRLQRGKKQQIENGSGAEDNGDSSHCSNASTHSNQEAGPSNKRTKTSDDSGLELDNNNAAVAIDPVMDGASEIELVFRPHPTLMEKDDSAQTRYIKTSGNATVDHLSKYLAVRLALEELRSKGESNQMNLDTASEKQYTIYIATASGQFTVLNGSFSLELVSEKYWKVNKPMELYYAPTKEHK
UniProt Q99496: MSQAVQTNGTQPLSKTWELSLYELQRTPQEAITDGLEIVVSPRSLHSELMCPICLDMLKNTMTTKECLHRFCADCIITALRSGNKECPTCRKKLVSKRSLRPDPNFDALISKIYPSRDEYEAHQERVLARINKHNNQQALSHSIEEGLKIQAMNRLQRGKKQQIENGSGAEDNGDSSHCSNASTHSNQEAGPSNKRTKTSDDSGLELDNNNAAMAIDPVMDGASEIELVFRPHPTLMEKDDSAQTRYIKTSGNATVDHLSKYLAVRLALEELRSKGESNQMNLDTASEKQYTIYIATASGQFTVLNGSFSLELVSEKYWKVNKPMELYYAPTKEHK

For assay [1], the target named is T1, mesencephalic astrocyte-derived neurotrophic factor (pGBKT7-MANF) (UniProt P55145).
T1 sequence: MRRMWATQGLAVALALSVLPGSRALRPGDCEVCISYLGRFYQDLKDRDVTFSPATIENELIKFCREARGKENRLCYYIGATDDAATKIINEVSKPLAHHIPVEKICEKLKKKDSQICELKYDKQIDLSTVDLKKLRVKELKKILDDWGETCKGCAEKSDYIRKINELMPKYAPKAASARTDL
Briefly: two-hybrid; yeast two-hybrid screen for RNF2-interacting proteins; library and bait not told.

The target in assay [2] is T1, mesencephalic astrocyte-derived neurotrophic factor (pGBKT7-MANF). Description: two-hybrid; yeast back hybridization: pGBKT7-MANF and pGADT7-RNF2 co-transformed into yeast gold strain, growth and blue colour on QDO/X plates.
Assay [3] addresses Ring finger protein 2, endogenous in N2a cells (mouse (endogenous in N2a)) (UniProt Q9CQJ4). Briefly: co-IP; lysate of N2a cells stably expressing GFP-MANF; anti-RNF2 rabbit antibody on protein A/G beads, IgG as negative control; blots with anti-GFP and anti-RNF2.

No constants are given. Whether binding was seen depends on the method and setting. For part of these data: In cells and extracts the contact can be indirect. Some results given as binding are weak or reduced against the parent protein; the word gives no strength. For part of these data: Where a sequence is shown, tags or fusion partners need not be part of it.

“Ring finger protein 2 (pGADT7-RNF2) (from UniProt Q99496 1-336)”: the binding entry in assay [1] and in assay [2] was “binds” throughout.

B1: His-tagged human MANF (natural protein, UniProt P55145 25-182, looked up)
chain: LRPGDCEVCISYLGRFYQDLKDRDVTFSPATIENELIKFCREARGKENRLCYYIGATDDAATKIINEVSKPLAHHIPVEKICEKLKKKDSQICELKYDKQIDLSTVDLKKLRVKELKKILDDWGETCKGCAEKSDYIRKINELMPKYAPKAASARTDL
notes: human MANF; also called His-MANF; recombinant His-MANF; source: Escherichia coli BL-21, purified (Ni-NTA agarose)
B1: the binding result in assay [3] was “binds”.
